Results as given in article doi:10.1101/2025.11.29.691277.

Assays:
[1] = target: T1, Chlamydomonas reinhardtii intraflagellar transport-20 (C. reinhardtii (endogenous in wild-type CC-125)) (UniProt Q8LLV9); assay: co-IP
T1 sequence: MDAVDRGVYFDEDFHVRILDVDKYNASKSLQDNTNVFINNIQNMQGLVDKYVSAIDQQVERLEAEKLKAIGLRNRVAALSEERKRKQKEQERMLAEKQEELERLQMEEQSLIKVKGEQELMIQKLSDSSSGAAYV

[2] = target: Chlamydomonas reinhardtii channelrhodopsin-1 (C. reinhardtii (endogenous in wild-type CC-125)); assay: co-IP

In the case of “Chlamydomonas reinhardtii channelrhodopsin-1”, the binding [1] is reported as “binds”.

B1: Chlamydomonas reinhardtii intraflagellar transport-20 (protein, UniProt Q8LLV9 1-135)
chain: T1 sequence
In the case of B1, the binding [2] is reported as “binds”.

Results are given in words; binding and its absence hold for the method and conditions named. In cells and extracts the contact can be indirect. A result given as binding can be weak or reduced; the word gives no strength. Tags and fused reporters may be left off the sequences shown.
